Source: patent US12174174B2, “Composition comprising material for regulating OCT4 modification to repress stemness” (NATIONAL CANCER CENTER, priority 2018, dated 2024)
At least one structure is not confirmed: it was looked up by name or label, or the drawing left a doubt.

System: OCT4 phosphorylation
Test: Western blotting of the embryonic stem cell line with or without doxycycline
Format: cell-based, mouse
Details: embryonic stem cell line in which doxycycline inhibits endogenous OCT4 expression; FIG. 10

Question: How did the “recognition of OCT4 phosphorylation” value turn out when `C[C@H]1c2cccc(O)c2C(=O)C2=C(O)[C@]3(O)C(=O)C(C(N)=O)=C(O)[C@@H](N(C)C)[C@@H]3[C@@H](O)[C@@H]21` [doxycycline] was run?
Answer: OCT4 phosphorylation was not recognized
